# Measured values taken from the supplement of paper PMC8728848.
# The list shows a part of the results.
# Experiments:
# Experiment in all cases: glycan array binding signal (z-score within array); higher = stronger binding
# Conditions in all cases: glycan notation: IUPAC condensed, linker removed
# [1] = biological target: GlcNAc(b1-3)Gal(b1-4)GlcNAc(b1-3)Gal(b1-4)GlcNAc(b1-3)Gal(b1-4)GlcNAc(b1-2)[GlcNAc(b1-3)Gal(b1-4)GlcNAc(b1-3)Gal(b1-4)GlcNAc(b1-3)Gal(b1-4)GlcNAc(b1-6)]Man(a1-6)[GlcNAc(b1-3)Gal(b1-4)GlcNAc(b1-3)Gal(b1-4)GlcNAc(b1-3)Gal(b1-4)GlcNAc(b1-2)Man(a1-3)]Man(b1-4)GlcNAc(b1-4)[Fuc(a1-6)]GlcNAc
# Method in brief: (§1)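 Negative Z-scores can be read as non-binding. The Z-score is calculated within each array and then averaged across arrays of one protein sequence at different concentrations or buffers and across linkers. Arrays, 3228 in all, were curated from the Consortium for Functional Glycomics database and kept only where the protein sequence was available.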
# [2] = biological target: GlcNAc(b1-3)Gal(b1-4)GlcNAc(b1-3)Gal(b1-4)GlcNAc(b1-3)Gal(b1-4)GlcNAc(b1-3)Gal(b1-4)GlcNAc(b1-2)Man(a1-3)[GlcNAc(b1-3)Gal(b1-4)GlcNAc(b1-3)Gal(b1-4)GlcNAc(b1-3)Gal(b1-4)GlcNAc(b1-3)Gal(b1-4)GlcNAc(b1-2)Man(a1-6)]Man(b1-4)GlcNAc(b1-4)GlcNAc
# Method in brief: as §1
# [3] = biological target: GlcNAc(b1-3)Gal(b1-4)GlcNAc(b1-3)Gal(b1-4)GlcNAc(b1-3)Gal(b1-4)GlcNAc(b1-3)Gal(b1-4)GlcNAc(b1-2)Man(a1-3)[GlcNAc(b1-3)Gal(b1-4)GlcNAc(b1-3)Gal(b1-4)GlcNAc(b1-3)Gal(b1-4)GlcNAc(b1-3)Gal(b1-4)GlcNAc(b1-2)Man(a1-6)]Man(b1-4)GlcNAc(b1-4)[Fuc(a1-6)]GlcNAc
# Method in brief: as §1
# [4] = biological target: GlcNAc(b1-3)Gal(b1-4)GlcNAc(b1-3)Gal(b1-4)GlcNAc(b1-3)Gal(b1-4)GlcNAc(b1-3)Gal(b1-4)GlcNAc(b1-2)[GlcNAc(b1-3)Gal(b1-4)GlcNAc(b1-3)Gal(b1-4)GlcNAc(b1-3)Gal(b1-4)GlcNAc(b1-3)Gal(b1-4)GlcNAc(b1-6)]Man(a1-6)[GlcNAc(b1-3)Gal(b1-4)GlcNAc(b1-3)Gal(b1-4)GlcNAc(b1-3)Gal(b1-4)GlcNAc(b1-3)Gal(b1-4)GlcNAc(b1-2)Man(a1-3)]Man(b1-4)GlcNAc(b1-4)[Fuc(a1-6)]GlcNAc
# Method in brief: as §1
# [5] = biological target: GlcNAc(b1-3)Gal(b1-4)GlcNAc(b1-3)Gal(b1-4)GlcNAc(b1-3)GalNAc
# Method in brief: as §1
# [6] = biological target: GlcNAc(b1-3)Gal(b1-4)GlcNAc(b1-3)GalNAc
# Method in brief: as §1
# [7] = biological target: GlcNAc(b1-3)Gal(b1-4)GlcNAc(b1-3)[GlcNAc(b1-3)Gal(b1-4)GlcNAc(b1-3)]GalNAc
# Method in brief: as §1
# [8] = biological target: GlcNAc(b1-3)Gal(b1-4)GlcNAc(b1-6)[Gal(b1-3)]GalNAc
# Method in brief: as §1
# [9] = biological target: GlcNAc(b1-3)Gal(b1-4)GlcNAc(b1-6)[GlcNAc(b1-3)Gal(b1-3)]GalNAc
# Method in brief: as §1
# [10] = biological target: GlcNAc(b1-3)Gal(b1-4)GlcNAc(b1-6)[GlcNAc(b1-3)]Gal(b1-4)GlcNAc
# Method in brief: as §1
# [11] = biological target: GlcNAc(b1-3)GalNAc
# Method in brief: as §1
# [12] = biological target: GlcNAc(b1-3)Man
# Method in brief: as §1
# [13] = biological target: GlcNAc(b1-3)[GlcNAc(b1-4)][GlcNAc(b1-6)]GlcNAc
# Method in brief: as §1
# [14] = biological target: GlcNAc(b1-3)[GlcNAc(b1-6)]Gal(b1-4)GlcNAc
# Method in brief: as §1
# [15] = biological target: GlcNAc(b1-3)[GlcNAc(b1-6)]GalNAc
# Method in brief: as §1
# [16] = biological target: GlcNAc(b1-4)Gal(b1-4)GlcNAc
# Method in brief: as §1
# [17] = biological target: GlcNAc(b1-4)GlcNAc
# Method in brief: as §1
# [18] = biological target: GlcNAc(b1-4)GlcNAc(b1-4)GlcNAc
# Method in brief: as §1
# [19] = biological target: GlcNAc(b1-4)GlcNAc(b1-4)GlcNAc(b1-4)GlcNAc(b1-4)GlcNAc
# Method in brief: as §1
binder,measurement,setting,value
PX14375A-pdi-503-28-503 (Parabacteroides distasonis) (protein) PLGSPEAGDISEERQAFLRLTAVYSVMKDFRYTWSMQCFGDVLSNDATYSGSSNDAQTFTLLENYQYQADHTEILNKYRYSYQCINKANLFIRDMEMADDALFSKYDKEQMIGEAKFIRAYTYFELVKTFGGVPCYTGVLDLDHERLGRASVEEIYSVIEQDLNDAVSVLPKKSEVANYESSYAGRITKGAAIAMQTRIYLYEKKYDEVKKAFEKFQNECGGEYSLVAPEDYTWQFSLDGEHCSSSILEVNMYNSSTQSSYNVNNGNRHVLMSMPRNMTIGFGCAQPTQALADAYDAEGDVIRKKTTLLSTEEAIEIETAAKGDVAPVTDDRTGWYNRKLYLAPGQREENRGNNQPTNLRLIRLAEVYLNYAEACYFSGDIANAQKYLNEVRSHVNLAPKNHTGSQLFEDIMNERHLEFGMEGFRFFDVVRVGWGEKVFNGTKKAEFGAKTPFSAGAEVLPIPQTEIDISDGLITN,glycan array binding signal (z-score),[1],0.489
same,glycan array binding signal (z-score),[2],1.23
same,glycan array binding signal (z-score),[3],0.171
same,glycan array binding signal (z-score),[4],0.329
same,glycan array binding signal (z-score),[5],0.216
same,glycan array binding signal (z-score),[6],-0.686
same,glycan array binding signal (z-score),[7],-0.312
same,glycan array binding signal (z-score),[8],-0.135
same,glycan array binding signal (z-score),[9],-0.061
same,glycan array binding signal (z-score),[10],0.13
same,glycan array binding signal (z-score),[11],-0.217
same,glycan array binding signal (z-score),[12],0.149
same,glycan array binding signal (z-score),[13],0.364
same,glycan array binding signal (z-score),[14],-0.494
same,glycan array binding signal (z-score),[15],-0.103
same,glycan array binding signal (z-score),[16],0.229
same,glycan array binding signal (z-score),[17],0.584
same,glycan array binding signal (z-score),[18],-0.657
same,glycan array binding signal (z-score),[19],0.058

# Two entries drawn at random from those above:
binder,measurement,setting,value
PX14375A-pdi-503-28-503 (Parabacteroides distasonis) (protein) PLGSPEAGDISEERQAFLRLTAVYSVMKDFRYTWSMQCFGDVLSNDATYSGSSNDAQTFTLLENYQYQADHTEILNKYRYSYQCINKANLFIRDMEMADDALFSKYDKEQMIGEAKFIRAYTYFELVKTFGGVPCYTGVLDLDHERLGRASVEEIYSVIEQDLNDAVSVLPKKSEVANYESSYAGRITKGAAIAMQTRIYLYEKKYDEVKKAFEKFQNECGGEYSLVAPEDYTWQFSLDGEHCSSSILEVNMYNSSTQSSYNVNNGNRHVLMSMPRNMTIGFGCAQPTQALADAYDAEGDVIRKKTTLLSTEEAIEIETAAKGDVAPVTDDRTGWYNRKLYLAPGQREENRGNNQPTNLRLIRLAEVYLNYAEACYFSGDIANAQKYLNEVRSHVNLAPKNHTGSQLFEDIMNERHLEFGMEGFRFFDVVRVGWGEKVFNGTKKAEFGAKTPFSAGAEVLPIPQTEIDISDGLITN,glycan array binding signal (z-score),[7],-0.312
same,glycan array binding signal (z-score),[9],-0.061
